Data on two molecules can be found in PMC7447803, “DEPS-1 is required for piRNA-dependent silencing and PIWI condensate organisation in Caenorhabditis elegans” (Nature Communications, 2020).

No constants are given. Whether binding was seen depends on the method and setting. Some results given as binding are weak or reduced against the parent protein; the word gives no strength. Tags and fused reporters may be left off the sequences shown.

Assay [1] addresses T1, MBP-tagged full-length DEPS-1 (C. elegans) (UniProt Q9N303).
T1 sequence (chain, atto-488 NHS ester label): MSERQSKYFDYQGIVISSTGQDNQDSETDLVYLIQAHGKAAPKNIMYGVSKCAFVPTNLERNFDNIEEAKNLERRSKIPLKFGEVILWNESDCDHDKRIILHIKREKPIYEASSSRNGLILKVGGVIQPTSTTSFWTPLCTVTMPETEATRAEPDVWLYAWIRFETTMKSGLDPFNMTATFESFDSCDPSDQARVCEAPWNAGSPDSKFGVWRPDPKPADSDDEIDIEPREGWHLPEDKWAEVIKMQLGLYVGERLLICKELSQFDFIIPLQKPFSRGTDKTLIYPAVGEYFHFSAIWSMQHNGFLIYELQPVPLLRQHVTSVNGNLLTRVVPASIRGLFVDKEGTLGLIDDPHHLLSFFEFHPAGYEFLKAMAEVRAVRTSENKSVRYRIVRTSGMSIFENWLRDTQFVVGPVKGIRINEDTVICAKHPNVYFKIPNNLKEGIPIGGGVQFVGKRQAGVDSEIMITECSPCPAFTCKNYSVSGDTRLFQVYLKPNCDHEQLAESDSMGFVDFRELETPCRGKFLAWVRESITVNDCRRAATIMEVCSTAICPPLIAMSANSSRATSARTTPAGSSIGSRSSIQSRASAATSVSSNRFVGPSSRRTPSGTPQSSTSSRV
As to the kind of experiment: confocal imaging of labelled recombinant protein clusters; 3.4 µM Atto-488 MBP-DEPS-1 with 0.6 µM Atto-594 MBP-PRG-1 in 5% PEG2000; PRG-1 preincubated with 2 mM DEPS-1 PBS peptide or 2 mM FGFR2 peptide; both purified.

Assay [2] deals with T2, MBP-tagged full-length PRG-1 (C. elegans, UniProt P90786 1-824, Atto-594 label (in the cluster imaging only)).
T2 construct: PRG-1, the PIWI protein of C. elegans, full length; Cloned into pMAL-C5X; Unlabelled in the MST titration; also called MBP-PRG-1; MBP-PRG; source: E. coli BL21 (DE3), purified (RNaseA-treated lysate, amylose resin, size-exclusion chromatography)
T2 sequence (looked up): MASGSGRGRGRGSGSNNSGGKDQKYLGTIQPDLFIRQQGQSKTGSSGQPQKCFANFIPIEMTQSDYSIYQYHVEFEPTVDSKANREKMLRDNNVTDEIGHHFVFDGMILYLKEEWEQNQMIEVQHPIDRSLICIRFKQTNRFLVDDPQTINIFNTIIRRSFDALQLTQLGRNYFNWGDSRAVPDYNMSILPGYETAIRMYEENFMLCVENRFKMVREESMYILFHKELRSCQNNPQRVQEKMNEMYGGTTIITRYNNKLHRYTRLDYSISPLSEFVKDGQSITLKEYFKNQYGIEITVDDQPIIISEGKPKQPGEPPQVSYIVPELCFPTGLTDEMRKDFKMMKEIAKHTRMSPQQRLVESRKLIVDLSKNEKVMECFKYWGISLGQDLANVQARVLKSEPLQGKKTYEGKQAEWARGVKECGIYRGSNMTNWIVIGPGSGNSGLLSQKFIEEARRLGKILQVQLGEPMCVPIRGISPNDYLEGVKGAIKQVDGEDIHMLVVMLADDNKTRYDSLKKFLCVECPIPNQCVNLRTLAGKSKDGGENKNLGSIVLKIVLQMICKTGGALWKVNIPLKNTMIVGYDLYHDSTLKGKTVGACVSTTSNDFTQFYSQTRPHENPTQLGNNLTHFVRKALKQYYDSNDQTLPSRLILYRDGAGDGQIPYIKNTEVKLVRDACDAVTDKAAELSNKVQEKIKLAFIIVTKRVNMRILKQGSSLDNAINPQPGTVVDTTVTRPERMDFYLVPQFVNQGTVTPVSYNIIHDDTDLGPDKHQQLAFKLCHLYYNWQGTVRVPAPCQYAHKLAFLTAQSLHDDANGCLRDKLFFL
Described as above.

B1: MBP-tagged full-length PRG-1 (protein, UniProt P90786 1-824)
chain: T2 sequence (looked up)
modifications: Atto-594 label (in the cluster imaging only)
Take B1: the binding result in assay [1] was “binds”. Regarding IPLKFGEVILWNESDCDHDK (atto-488 NHS ester label (in the MST assay)) [DEPS-1 PBS motif peptide], the binding entry in assay [2] is recorded as “binds”.
